In PubChem BioAssay AID1347076 (National Center for Advancing Translational Sciences (NCATS), 2019):
In all, about 400,000 compounds went through this assay and about 13,000 (3.2%) were called active. The shares of active, inactive and inconclusive entries below differ from those in the screen. Calls follow the shape of the dose curve; as a rule, active = well fitted cell-killing curve with a large enough effect; inconclusive = small, poorly fitted or top-dose-only effect, or effect the other way; inactive = flat fitted curve, though single readings scatter. Where the call is inconclusive, the potency comes from a doubtful curve fit.

assay: qHTS assay for MDR1-selective chemotherapeutics: Primary screen using the drug-selected MDR subline cells KB-V1; settings: KB-V1 MDR cells viability, CellTiter-Glo, 72 h; activity change, negative = cytotoxicity: at 46.1 µM (top of the series); also: nearly all actives have a fitted effect of over 60% in size
Summary of the method: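 KB-V1 MDR subline cells in DMEM (phenol-red free, 10% FBS) exposed to compounds in qHTS concentration series for 72 h at 37 degrees C. Viability read by CellTiter-Glo luminescence; concentration-effect curves fitted after normalization and correction.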
% is scaled to controls: 0 for no effect and ±100 for the full control effect; potency is read from the fitted curve at half-maximal effect.

SMILES | Potency | activity change, negative = cytotoxicity
CCS(=O)(=O)c1ccc2oc(SCC(=O)NCCc3ccc(F)cc3)nc2c1 | inconclusive: 20.6 µM [cytotoxic, single point] | 
N#C/C(=C\c1ccc(C(=O)O)cc1)c1ccccn1 |  | inactive: 7.27%
COc1ccc(-c2nnn(CC(=O)N(CC3CCCO3)C(C(=O)NC(C)(C)C)c3ccco3)n2)cc1OC (configuration not stated) |  | inactive: -24.3%
Cc1cc(C)n(-c2nc(SCC(=O)Nc3nccs3)c3c4c(sc3n2)COC(C)(C)C4)n1 | inconclusive: 11.6 µM [cytotoxic, partial curve, poor fit] | 
CC(=O)c1cc2c(cc1NC(=O)Cn1nc(-c3ccc(F)cc3)ccc1=O)OCO2 | inconclusive: 6.51 µM [cytotoxic, full curve] | 
NC(=O)c1sc(=S)n(-c2ccc(Br)cc2)c1N |  | inactive: -11.1%
COCCn1c(=NC(=O)c2nc3ccccc3s2)sc2cc(S(C)(=O)=O)ccc21 | inconclusive: 8.2 µM [cytotoxic, partial curve, poor fit] | 
C/C(=N\NC(=O)C1CCCN(S(=O)(=O)c2ccccc2)C1)c1ccncc1 (configuration not stated) |  | inactive: -9.33%
Cc1csc(CN(C)C(=O)CC2C(=O)NCCN2Cc2ccc(Cl)c(F)c2)n1 (configuration not stated) |  | inconclusive: -0.515%
COc1ccc(C(C)=O)cc1CSc1nnc(C)n1-c1ccccc1 | active: 20.6 µM | 
C/C(=N\NC(=O)C1CC1)c1ccccc1O | inconclusive: 18.4 µM [cytotoxic, single point] | 
CC1=C(C(=O)OCc2ccccc2)C(/C=C/c2ccccc2)NC(=S)N1 (configuration not stated) | inconclusive: 23.1 µM [cytotoxic, single point] | 
Cc1ccccc1NC(=O)C1CCN(C(=O)NC2CCCCC2)CC1 |  | inactive: -21.8%
Cc1cc(Cl)ccc1OCC(=O)Nc1cccc(S(=O)(=O)NC2=NCCCCC2)c1 | inconclusive: 9.2 µM [cytotoxic, single point] | 
CCOc1ccc(NC(=O)Cn2c(CCC(=O)O)ccc2-c2ccc(C)cc2)cc1 | inconclusive: 13 µM [rising, single point] | 
O=[N+]([O-])c1ccc(O)c(/C=N/Nc2ccccc2[N+](=O)[O-])c1 | inconclusive: 18.4 µM [cytotoxic, single point] | 
c1ccc(-c2nc3nonc3c3nc4ccccc4n23)cc1 | inconclusive: 20.6 µM [cytotoxic, partial curve] | 
COc1ccc(-c2cc3nc(C)c(CCC(=O)NC(C)CCc4ccco4)c(C)n3n2)c(OC)c1 (configuration not stated) | inconclusive: 29.1 µM [cytotoxic, single point] | 
C[C@@]12C(=O)N(c3ccc(Br)cc3)C(=O)N1[C@@H]1c3ccccc3OC[C@@H]1[C@H]2c1ccccc1 |  | inactive: -10.9%
Cc1ccccc1C(NC(=O)C1CCN(Cc2ccc(Oc3ccccc3)cc2)CC1)c1ccsc1 (configuration not stated) | inconclusive: 25.9 µM [cytotoxic, single point] | 
COc1cc(F)ccc1S(=O)(=O)N1CCN(Cc2ccccc2)CC1 | inconclusive: 18.4 µM [cytotoxic, single point] | 

SMILES | Potency | activity change, negative = cytotoxicity
CN(C)CCOC1(Cc2ccc(F)cc2)CCC(C(C)(C)C)CC1 (configuration not stated) | active: 16.4 µM | 
Cc1sc2ncnc(OCC(=O)c3ccc(S(=O)(=O)N4CCCC4)cc3)c2c1C | active: 4.61 µM | 
O=C(CCn1c(=O)sc2ccccc21)Nc1cccnc1 | inconclusive: 25.9 µM [cytotoxic, partial curve, poor fit] | 
COc1ccc(NC(=S)NC23CN4CN(CN(C4)C2)C3)cc1 |  | inactive: 4.85%
CCOC(=O)N1CCC(NC(=O)C2CCN(C(=O)N3CC(C)Oc4ccccc43)CC2)CC1 (configuration not stated) | inconclusive: 16.4 µM [cytotoxic, partial curve] | 
CC(CCc1ccc(O)cc1)NCCC(c1ccccc1)c1ccccc1 (configuration not stated) | inconclusive: 23.1 µM [cytotoxic, partial curve] | 
O=C(NCCN1CCN(Cc2ccccc2Cl)CC1)Nc1ccccc1 |  | inactive: -14.6%
Cc1ccc(O)c(-c2n[nH]c3c2C(c2ccccc2F)N(Cc2ccco2)C3=O)c1 (configuration not stated) | inconclusive: 18.4 µM [cytotoxic, single point] | 
Cc1ccc(-c2nnc(SCC(=O)Nc3ccc4c(c3)oc3ccccc34)n2C)c(Cl)c1 | active: 2.59 µM | 
COc1ccccc1N1CCN(S(=O)(=O)c2ccc3c(c2)NC(=O)C(C)S3)CC1 (configuration not stated) | inconclusive: 20.6 µM [cytotoxic, single point] | 
CC1(C)C2CCC1(CS(=O)(=O)Nc1ccc(S(=O)(=O)N3CCCCC3)cc1)C(=O)C2 (configuration not stated) | active: 25.9 µM | 
COc1ccc([C@H]2C[C@H](n3cc(COC(=O)c4ccccc4)nn3)[C@@H](O)CN2CC2CCCCC2)cc1 | inconclusive: 29.1 µM [rising, single point] | 
Cc1cc(C)c(S(=O)(=O)Oc2ccccc2[N+](=O)[O-])c(C)c1 | active: 14.6 µM | 
Cc1nc2ccccc2nc1OCC(=O)Nc1ccc(F)cc1 | inconclusive: 16.4 µM [cytotoxic, single point] | 
CCn1nc([N+](=O)[O-])c2c(-c3nc4ccccc4o3)c(N)n(CCCOC)c2c1=O | inconclusive: 25.9 µM [cytotoxic, single point] | 
COc1cccc(CNC(=O)CCS(=O)(=O)c2ccc3c(c2)CC(C)N3C(=O)C2CC2)c1 (configuration not stated) | inconclusive: 29.1 µM [rising, single point] | 
Cc1c(OCc2ccccc2)c(=O)ccn1Cc1ccc(F)cc1 | inconclusive: 23.1 µM [cytotoxic, single point] | 
CCOc1ccc(NC(=O)Cn2nnc(-c3ccccc3NC(=O)CC)n2)cc1 | inconclusive: 13 µM [cytotoxic, partial curve, poor fit] | 
CC(C)(C)NC(=O)C(c1ccc(-c2ccccc2)cc1)n1c(=O)c(-c2ccccc2)nc2ccccc21 (configuration not stated) | inconclusive: 20.6 µM [cytotoxic, partial curve, poor fit] | 
O=C(Nc1ccc(NC(=O)c2cc3ccccc3o2)cc1)c1ccc2c(c1)OCCO2 | inconclusive: 5.17 µM [cytotoxic, full curve] | 
COc1ccc(-c2cc(C(=O)N(C)Cc3ccc(F)cc3)c3ccccc3n2)cc1OC | inconclusive: 5.17 µM [cytotoxic, full curve, poor fit] | 

Individual results from the results shown.
Potency with Cc1cc(C)c(S(=O)(=O)Oc2ccccc2[N+](=O)[O-])c(C)c1 is entered as active: 14.6 µM
Potency with COc1ccccc1N1CCN(S(=O)(=O)c2ccc3c(c2)NC(=O)C(C)S3)CC1 (configuration not stated) is entered as inconclusive: 20.6 µM [cytotoxic, single point]
